Measured data: PubChem BioAssay AID504791 (Drosophila RNAi Screening Center, 2011)

Screen: 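Genes whose knock-down strengthens or weakens small-RNA reporter silencing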 (primary screen)
System: Drosophila S2-derived reporter cells
Reagents: long dsRNA against Drosophila genes, about 150-250 ng dsRNA per well (siRNA assay); about 80-120 ng (miRNA assay)
Time to read-out: about 5 days (siRNA assay); about 4 days (miRNA assay)
Conditions: copper sulfate induction of reporters: 25 µM (siRNA assay); 200 mM stated (miRNA assay), 1-2 days before reading
Read-out: 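Per-well ratio of Renilla over firefly light, expressed relative to that plate's average ratio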
Call rule: 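a well was a first-pass pick when its plate-scaled ratio rose above 1.5 (siRNA assay) or 1.6 (miRNA assay), or dropped below 0.6; a gene counted only if two separate dsRNAs agreed on retest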
The screen tested about 23,000 reagents; shown is an unselected part of those with a known target gene and a result. Of all reagents, 199 (0.86%) got an active call. 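Plate-scaled ratios behind the calls are not deposited; printed light signals are raw; many rows marked increased or decreased are still called inactive.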 A plus sign joins genes that one reagent is predicted to hit. Not stated in the record: the direction of the score.

| gene | amplicon | stable siRNA reporter change | miRNA reporter change | stable assay Renilla, run 1 (luminescence) | stable assay firefly, run 1 (luminescence) | outcome |
| --- | --- | --- | --- | --- | --- | --- |
| CG34057 | DRSC08375 | – | – | 5504 | 3.78e5 | inactive |
| CG4836 | DRSC15659 | – | – | 7124 | 3.00e5 | inactive |
| Cks85A | DRSC16562 | – | – | 6056 | 3.81e5 | inactive |
| Corp | DRSC17771 | – | – | 7931 | 4.51e5 | inactive |
| JYalpha (retired record) + JYalpha | DRSC21700 | – | – | 9327 | 4.84e5 | inactive |
| fiz | DRSC20188 | – | – | 8810 | 5.56e5 | inactive |
| CG14840 | DRSC14964 | – | – | 7647 | 5.52e5 | inactive |
| CG32023 | DRSC08946 | – | – | 3876 | 3.63e5 | inactive |
| CG3880 | DRSC04428 | – | – | 6334 | 5.00e5 | inactive |
| CG3880 | DRSC21404 | – | – | 8722 | 4.00e5 | inactive |
| eIF4A | DRSC03526 | reporter ratio raised past the hit cutoff | – | 6220 | 2.23e5 | active |
| CG11670 | DRSC14342 | – | – | 6558 | 3.71e5 | inactive |
| Iswi | DRSC07446 | reporter ratio raised past the hit cutoff | – | 7083 | 2.05e5 | active |
| Nlg3 | DRSC12477 | – | – | 4319 | 3.49e5 | inactive |
| Nlg3 | DRSC12524 | – | – | 5974 | 4.20e5 | inactive |
| Nlg3 | DRSC12540 | – | – | 7262 | 3.51e5 | inactive |
| Nlg3 | DRSC12574 | – | – | 8565 | 4.85e5 | inactive |
| eIF2alpha | DRSC20327 | – | – | 8762 | 4.86e5 | inactive |
| CG15370 | DRSC18042 | – | – | 4311 | 3.23e5 | inactive |
| CG15370 | DRSC23277 | – | – | 8138 | 4.83e5 | inactive |
| CG2528 | DRSC03724 | – | – | 6568 | 3.97e5 | inactive |
| CG7179 | DRSC03020 | – | – | 7812 | 4.35e5 | inactive |
| CG7179 | DRSC25007 | – | reporter ratio raised past the hit cutoff | – | – | inactive |
| CG7069 | DRSC16188 | – | – | 8086 | 3.52e5 | inactive |
| CG14483 | DRSC06455 | – | – | 5431 | 3.39e5 | inactive |
| CG9313 | DRSC04540 | – | – | 58161 | 1.51e6 | inactive |
| CG18747 | DRSC15384 | – | – | 7088 | 4.48e5 | inactive |
| Atox1 | DRSC22416 | – | – | 5459 | 5.28e5 | inactive |
| Thor | DRSC00770 | – | – | 14301 | 2.84e5 | inactive |
| Arp53D | DRSC05923 | – | – | 6072 | 4.06e5 | inactive |
| CG14142 | DRSC10145 | – | – | 6662 | 3.97e5 | inactive |
| CG42537 | DRSC12519 | – | – | 5862 | 3.78e5 | inactive |
| Dop1R2 | DRSC13958 | – | – | 5147 | 3.67e5 | inactive |
| Dop1R2 | DRSC15379 | – | – | 5784 | 3.39e5 | inactive |
| Dgk | DRSC05064 | – | – | 4950 | 4.22e5 | inactive |
| Dgk | DRSC05065 | – | – | 5343 | 4.47e5 | inactive |
| Dgk | DRSC06171 | – | – | 6955 | 3.66e5 | inactive |
| Dgk | DRSC06782 | – | – | 4351 | 3.05e5 | inactive |
| Dgk | DRSC22236 | reporter ratio raised past the hit cutoff | – | 9481 | 3.32e5 | inactive |
| CG14042 + SP555 | DRSC02367 | – | – | 7187 | 3.37e5 | inactive |
| CG14042 + SP555 | DRSC03428 | – | – | 6702 | 3.66e5 | inactive |
| CG9356 | DRSC16476 | – | – | 7895 | 3.65e5 | inactive |
| CG1750 | DRSC15240 | – | – | 6574 | 5.26e5 | inactive |
| Mob4 | DRSC04993 | – | – | 16051 | 9.73e5 | inactive |
| CG18094 | DRSC02655 | – | – | 6435 | 3.12e5 | inactive |
| Cpsf73 | DRSC16291 | – | – | 5983 | 3.37e5 | inactive |
| Cpsf73 | DRSC28954 | – | reporter ratio lowered past the hit cutoff | – | – | inactive |
| Ttc7 | DRSC04836 | – | – | 2.18e5 | 1.22e6 | inactive |
| spz5 | DRSC08645 | – | – | 10364 | 4.22e5 | inactive |
| Synj | DRSC04526 | – | – | 9307 | 1.07e6 | inactive |
| nAChRbeta2 | DRSC17010 | – | – | 11552 | 4.42e5 | inactive |
| fand | DRSC06967 | – | – | 9305 | 6.79e5 | inactive |
| Efa6 | DRSC13569 | – | – | 4007 | 3.35e5 | inactive |
| Efa6 | DRSC15312 | – | – | 4547 | 3.37e5 | inactive |
| Efa6 | DRSC16141 | – | – | 6287 | 3.75e5 | inactive |
| Samuel | DRSC02156 | – | – | 6867 | 2.68e5 | inactive |
| Samuel | DRSC02401 | – | – | 6754 | 2.87e5 | inactive |
| Samuel | DRSC02402 | – | – | 6158 | 3.81e5 | inactive |
| Samuel | DRSC21731 | – | – | 8615 | 3.88e5 | inactive |
| Samuel | DRSC23114 | – | – | 4220 | 3.05e5 | inactive |

Sorted by “stable assay firefly, run 1 (luminescence)” (low to high): 10 of the entries above
| gene | amplicon | stable siRNA reporter change | miRNA reporter change | stable assay Renilla, run 1 (luminescence) | stable assay firefly, run 1 (luminescence) | outcome |
| --- | --- | --- | --- | --- | --- | --- |
| Thor | DRSC00770 | – | – | 14301 | 2.84e5 | inactive |
| Dop1R2 | DRSC15379 | – | – | 5784 | 3.39e5 | inactive |
| Dop1R2 | DRSC13958 | – | – | 5147 | 3.67e5 | inactive |
| CG42537 | DRSC12519 | – | – | 5862 | 3.78e5 | inactive |
| CG14142 | DRSC10145 | – | – | 6662 | 3.97e5 | inactive |
| Arp53D | DRSC05923 | – | – | 6072 | 4.06e5 | inactive |
| Dgk | DRSC05064 | – | – | 4950 | 4.22e5 | inactive |
| CG18747 | DRSC15384 | – | – | 7088 | 4.48e5 | inactive |
| Atox1 | DRSC22416 | – | – | 5459 | 5.28e5 | inactive |
| CG9313 | DRSC04540 | – | – | 58161 | 1.51e6 | inactive |
